The subject of series [1] is twitcher mice.
A further series concerns MBP. To be noted: cerebellum, donepezil 10 mg/kg/d via drinking water.
Another series deals with Vimentin. The note with it: for Vimentin normalized fluorescence, molecular layer (ML): ML of cerebellum.
In series [2] the test system is twitcher mice. This is another data set of the same source.
A further series relates to Iba1. To be noted: for Iba1 normalized fluorescence (% baseline): cerebellum.
For series [3] the following is noted: twitcher mice when sacrificed; 10 mg/kg via drinking water; reduced water consumption at end-stage.
The test system of series [4] is Vimentin and Iba1 / MBP and MOG. The note with it: twitcher mice, donepezil vs vehicle; p<0.0001.

Read-outs that look alike come from different tables or passages of the source.

The compound `COc1cc2c(cc1OC)C(=O)C(CC1CCN(Cc3ccccc3)CC1)C2` (racemic) [donepezil, (RS)-2-[(1-Benzyl-4-piperidyl)methyl]-5,6-dimethoxy-2,3-dihydroinden-1-one] returned a lifespan in the series on twitcher mice [1] (donepezil 10 mg/kg, vehicle-treated 36 days, log-rank p<0.05) of approximately 45 days. This compound also had a life extension in the series with twitcher mice [1] (donepezil oral administration) of 5 days. The “MBP normalized fluorescence (% baseline)” value is recorded as 75 ± 13.1% in the series with MBP (twitcher mice, vehicle twitcher 33 ± 1.7, p = 0.036) and 98 ± 13.4% with MBP (wild type mice, vehicle wild type 100 ± 28.7, p = 0.841). The “Vimentin normalized fluorescence, molecular layer (ML)” value is given as 50 ± 4.3 % baseline with Vimentin (twitcher mice, vehicle 48 ± 10.1, p=1.000) and 89 ± 10.1 % baseline with Vimentin (wild type mice, vehicle 100 ± 14.6, p=0.7533). In the series with Vimentin (twitcher mice, vehicle twitcher 228 ± 18.1, wild type 100 ± 7.0, p=0.0357), the “Vimentin normalized fluorescence, translocation from ML to GL (Figure 2D: white matter, WM)” value is listed as 169 ± 4.4 % baseline. In addition, in the series on twitcher mice [2] (P27 to P32, vs vehicle, not different from P32 onwards), the body weight result is “increased trend”. Further, in the series with twitcher mice [2] (donepezil vs vehicle), the “loss of climbing behavior (climbing score)” value is recorded as “delayed”. In addition, the “severity of immobility (immobility score)” value in the series on twitcher mice [2] (donepezil vs vehicle) is listed as “decreased severity”. The twitching score result with twitcher mice [2] (donepezil vs vehicle) is “did not reveal any significant difference”. Also, the “delay of appearance of immobility (immobility score)” value in the series with twitcher mice [2] (donepezil vs vehicle, effect from P28 onwards) is on record as “approximately 8 days”. Besides, the “Iba1 normalized fluorescence (% baseline)” value in the series with Iba1 (twitcher mice, vehicle 437 ± 44.8, p = 0.036) was found to be 82 ± 15.2%; in the series with Iba1 (wild type mice, vehicle 100 ± 14.4, p = 0.0079), 223 ± 30.0%. Also, the “mean surface area of Iba1 immunofluorescence” value in the series on Iba1 (twitcher mice, vehicle 1061 ± 117, p=0.0714) is listed as 846 ± 31.2 square micrometers; in the series on Iba1 (wild type mice, vehicle 682 ± 39.6, p=0.0952) it was 786 ± 18.1 square micrometers. For the same compound, the “concentration of donepezil in the brains” value in series [3] is given as “not detectable”. The “protein-expression-signature (Vimentin and Iba1 divided by MBP and MOG)” value in series [4] was “significantly attenuated”.

(Values after EP4534086A1, “TREATMENT OF LEUKODYSTROPHY” (priority 2023, dated 2025).)
